Results deposited as PubChem BioAssay AID504804 (Drosophila RNAi Screening Center, 2011)
Purpose: 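Fly genes whose loss lessens doxorubicin-driven cell death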 (primary screen). System: Drosophila Kc cells. Knock-down reagent: long dsRNA against Drosophila genes, 0.5 µg dsRNA per well. Duration: 96 h (48 h knock-down, then 48 h drug). Treatment: doxorubicin 5 µg/ml for 48 h, added 48 h after dsRNA. Read-out: 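Luminescent ATP counts per replicate, not normalised, reflecting viable cells after 48 h dsRNA knock-down followed by 48 h of 5 µg/ml doxorubicin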. Direction: raw ATP luminescence: higher = more viable cells, protection from doxorubicin. Hit rule: 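Active when both duplicate wells lie at least 2 SD above the plate mean and protection is confirmed by rescreening and independent dsRNAs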.
The deposit covers about 19,000 reagents; shown is a random part of those that have a named target and a result. In the full data, 47 (0.25%) are marked active. 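Signals are raw, not normalised; exact z-scores behind calls not deposited; actives needed confirmation, so some wells reaching 2 SD are inactive.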 Reagents against one gene are numbered here. A plus sign joins genes that one reagent is predicted to hit.

| Gene | reagent no. | raw ATP luminescence, replicate 1 | raw ATP luminescence, replicate 2 | Outcome |
| --- | --- | --- | --- | --- |
| Gr5a (Gustatory receptor 5a) | 1 | 40600 | 58460 | inactive |
| cpa (capping protein alpha) | 1 | 58863 | 54233 | inactive |
| NdufV3 (NADH:ubiquinone oxidoreductase subunit V3) | 1 | 3.33e5 | 2.85e5 | inactive |
| CG18281 | 1 | 22977 | 25580 | inactive |
| CG16922 (retired record) | 1 | 1.29e5 | 1.24e5 | inactive |
| CG13994 | 1 | 26093 | 40443 | inactive |
| CG8301 | 1 | 58270 | 54273 | inactive |
| CG4115 | 1 | 59943 | 36950 | inactive |
| Mef2 (Myocyte enhancer factor 2) | 1 | 55203 | 47527 | inactive |
| rols (rolling pebbles) | 1 | 76933 | 59763 | inactive |
| rols (rolling pebbles) | 2 | 86237 | 82797 | inactive |
| rols (rolling pebbles) | 3 | 76843 | 69860 | inactive |
| CG43328 | 1 | 2.00e5 | 1.39e5 | inactive |
| obst-J (obstructor-J) | 1 | 69597 | 68790 | inactive |
| CG8229 + CG33199 | 1 | 82873 | 86537 | inactive |
| Lhr (Lethal hybrid rescue) | 1 | 52327 | 65277 | inactive |
| CG10137 | 1 | 77220 | 54313 | inactive |
| CG10137 | 2 | 63973 | 52833 | inactive |
| PGAP3 (Post-GPI attachment to proteins 3) | 1 | 70547 | 66183 | inactive |
| CG33127 | 1 | 2.20e5 | 2.22e5 | inactive |
| Cpr72Ec (Cuticular protein 72Ec) | 1 | 16733 | 23413 | inactive |
| Cdk8 (Cyclin-dependent kinase 8) | 1 | 46437 | 34957 | inactive |
| l(3)mbn (lethal (3) malignant blood neoplasm) | 1 | 1.25e5 | 71397 | inactive |
| CCT1 (Chaperonin containing TCP1 subunit 1) | 1 | 34190 | 45990 | inactive |
| LSm7 (Like Sm 7) | 1 | 61470 | 60567 | inactive |
| ath (athos) | 1 | 40227 | 68510 | inactive |
| mRpL9 (mitochondrial ribosomal protein L9) | 1 | 91320 | 76350 | inactive |
| ase (asense) | 1 | 45120 | 62440 | inactive |
| CG7369 | 1 | 48477 | 29033 | inactive |
| CG15478 | 1 | 43480 | 75270 | inactive |
| CG10918 | 1 | 2.03e5 | 2.02e5 | inactive |
| Ugt35E2 (UDP-glycosyltransferase family 35 member E2) | 1 | 46127 | 53007 | inactive |
| Ret (Ret oncogene) | 1 | 82547 | 71793 | inactive |
| Ret (Ret oncogene) | 2 | 63973 | 46993 | inactive |
